The values below come from patent US10633353B2, “Polymerizable compound, composition, polymer, optically anisotropic body, liquid crystal display element, and organic EL display” (DIC Corporation, priority 2014, dated 2020).

Data set [1] in a line: Alignment property of the optical film. Particulars: summary in words.
Data set [2] in a line: Optical property of the optical film (retardation, Re(450)/Re(550)). Particulars: Re(450)/Re(550) of the optical film, RET-100.

As to `C=CC(=O)OCCCOc1ccc(C(=O)Oc2ccc(C(=O)Oc3ccc(OCCCOC(=O)C=C)cc3/C=N/Nc3nc4ccccc4s3)cc2)cc1` [1-eh-71], in data set [1], the alignment property result is on record as “improved”. Further, the Optical property result in data set [2] is “A (Re(450)/Re(550)≤0.85)”.

For `C=CC(=O)OCCCCCCOc1ccc(C(=O)Oc2ccc(C(=O)Oc3ccc(OCCCCCCOC(=O)C=C)cc3/C=N/Nc3nc4ccccc4s3)cc2)cc1` [1-eh-72], the alignment property result in data set [1] is recorded as “improved”. Besides, in data set [2], the Optical property entry is listed as “A (Re(450)/Re(550)≤0.85)”.

For the compound `C=CC(=O)OCCCOc1ccc(C(=O)Oc2ccc3cc(C(=O)Oc4ccc(OCCCOC(=O)C=C)cc4/C=N/Nc4nc5ccccc5s4)ccc3c2)cc1` [1-eh-74], the alignment property entry in data set [1] was “improved”. In data set [2], the Optical property entry was “A (Re(450)/Re(550)≤0.85)”.

`C=CC(=O)OCCCCCCOc1ccc(OC(=O)c2ccc(OC(=O)c3ccc4cc(OCCCCCCOC(=O)C=C)ccc4c3)cc2)c(/C=N/Nc2nc3ccccc3s2)c1` [1-eh-75]: in data set [1], the alignment property entry is listed as “improved”. Moreover, the Optical property result in data set [2] is on record as “A (Re(450)/Re(550)≤0.85)”.

Consider `C=CC(=O)OCCCCOC(=O)C1CCC(C(=O)OC2CCC(C(=O)Oc3ccc(OC(=O)C4CCC(OC(=O)C5CCC(C(=O)OCCCCOC(=O)C=C)CC5)CC4)c(/C=N/N(CCC)c4nc5ccccc5s4)c3)CC2)CC1` (stereo not drawn) [1-f-100], for which, in data set [2], the Optical property entry is “A (Re(450)/Re(550)≤0.85)”.

For the compound `C=CC(=O)OCCCCOC(=O)C1CCC(C(=O)OC2CCC(C(=O)Oc3ccc(OC(=O)C4CCC(OC(=O)C5CCC(C(=O)OCCCCOC(=O)C=C)CC5)CC4)c(/C=N/N(CC)c4nc5ccccc5s4)c3)CC2)CC1` (stereo not drawn) [1-f-102], the Optical property entry in data set [2] is listed as “A (Re(450)/Re(550)≤0.85)”.

`C=CC(=O)OCCCCOC(=O)C1CCC(C(=O)OC2CCC(C(=O)Oc3ccc(OC(=O)C4CCC(OC(=O)C5CCC(C(=O)OCCCCOC(=O)C=C)CC5)CC4)c(/C=N/N(C)c4nc5ccccc5s4)c3)CC2)CC1` (stereo not drawn) [1-f-103]: the Optical property entry in data set [2] is reported as “A (Re(450)/Re(550)≤0.85)”.

Consider `C=CC(=O)Oc1ccc(C(=O)Oc2ccc(OC(=O)c3ccc(OC(=O)C=C)cc3)c(/C=N/Nc3nc4ccccc4s3)c2)cc1` [1-g-35], for which, in data set [2], the Optical property result is given as “B (0.85<Re(450)/Re(550)≤0.95)”.

As to `C=CC(=O)OCCCCCCOc1ccc(C(=O)Oc2ccc(-c3ccc(OC(=O)c4ccc(OCCCCCCOC(=O)C=C)cc4)c(/C=N/Nc4nc5ccccc5s4)c3)cc2)cc1` [1-hk-84], in data set [1], the alignment property result is “good”. Moreover, the Optical property entry in data set [2] is “A (Re(450)/Re(550)≤0.85)”.

On to `C=CC(=O)OCCCCCCOc1ccc(C(=O)Oc2ccc(-c3ccc(OC(=O)c4ccc(OCCCCCCOC(=O)C=C)cc4)cc3/C=N/Nc3nc4ccccc4s3)cc2)cc1` [1-hk-85], for which the alignment property result in data set [1] is given as “good”. In data set [2], the Optical property result is “A (Re(450)/Re(550)≤0.85)”.

As for `C=CC(=O)OCCCOC(=O)/C=C/c1ccc(C(=O)Oc2ccc(OC(=O)c3ccc(/C=C/C(=O)OCCCOC(=O)C=C)cc3OC)c(/C=N/Nc3nc4ccccc4s3)c2)c(OC)c1` [1-j-57], in data set [2], the Optical property entry is listed as “A (Re(450)/Re(550)≤0.85)”.

Take `C=CC(=O)OCCCOC(=O)/C=C/c1ccc(C(=O)Oc2ccc(OC(=O)c3ccc(/C=C/C(=O)OCCCOC(=O)C=C)cc3)c(/C=N/Nc3nc4ccccc4s3)c2)cc1` [1-j-61]: the Optical property entry in data set [2] was “A (Re(450)/Re(550)≤0.85)”.

With `C=CC(=O)OCCCCCCOC(=O)/C=C/c1ccc(C(=O)Oc2ccc(OC(=O)c3ccc(/C=C/C(=O)OCCCCCCOC(=O)C=C)cc3)c(/C=N/Nc3nc4ccccc4s3)c2)cc1` [1-j-62], the Optical property result in data set [2] was “A (Re(450)/Re(550)≤0.85)”.

With `C=CC(=O)OCCCCOC(=O)/C=C/c1ccc(C(=O)Oc2ccc(OC(=O)c3ccc(/C=C/C(=O)OCCCCOC(=O)C=C)cc3)c(/C=N/N(c3ccccc3)c3ccccc3)c2)cc1` [1-j-64], the Optical property result in data set [2] is listed as “A (Re(450)/Re(550)≤0.85)”.

As to `C=CC(=O)OCCCCOC(=O)/C=C/c1ccc(C(=O)Oc2ccc(OC(=O)c3ccc(/C=C/C(=O)OCCCCOC(=O)C=C)cc3)c(/C=N/Nc3nc4ccc5ccccc5c4s3)c2)cc1` [1-j-65], the Optical property result in data set [2] is “A (Re(450)/Re(550)≤0.85)”.
